Consider one molecule from article PMC11570319.

Sequences of proteins named here, by UniProt entry; tags and fusion partners are left off. A change or cut given only in a name is not applied to a line headed by its entry.
UniProt P06797: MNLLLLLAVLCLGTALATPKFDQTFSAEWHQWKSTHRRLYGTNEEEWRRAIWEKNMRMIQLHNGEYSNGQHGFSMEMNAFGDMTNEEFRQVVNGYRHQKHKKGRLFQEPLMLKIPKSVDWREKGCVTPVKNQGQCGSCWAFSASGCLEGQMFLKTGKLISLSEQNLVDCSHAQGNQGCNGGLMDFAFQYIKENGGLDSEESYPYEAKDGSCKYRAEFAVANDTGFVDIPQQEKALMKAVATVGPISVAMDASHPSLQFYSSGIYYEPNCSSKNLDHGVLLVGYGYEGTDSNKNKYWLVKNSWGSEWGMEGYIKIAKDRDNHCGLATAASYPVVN

In the assay the target is cathepsin L (CTSL), mouse (mouse (endogenous in BMDM)) (UniProt P06797). The experiment in a line: proximity ligation; Duolink in situ PLA on fixed, permeabilised BMDM cells; cells treated with IAAP or SID26681509 for 6 h, then LPS (100 ng/mL) for 5 min; PLA signals per cell counted.

No constants are given. Whether binding was seen depends on the method and setting. In cells and extracts the contact can be indirect. Binding can be weak; no strength is given.

B1: A20 (deubiquitinating enzyme), mouse (enzyme, UniProt Q60769 1-775)
chain: MAEQLLPQALYLSNMRKAVKIRERTPEDIFKPTNGIIYHFKTMHRYTLEMFRTCQFCPQFREIIHKALIDRSVQASLESQKKLNWCREVRKLVALKTNGDGNCLMHAACQYMWGVQDTDLVLRKALCSTLKETDTRNFKFRWQLESLKSQEFVETGLCYDTRNWNDEWDNLVKMASADTPAARSGLQYNSLEEIHIFVLSNILRRPIIVISDKMLRSLESGSNFAPLKVGGIYLPLHWPAQECYRYPIVLGYDSQHFVPLVTLKDSGPELRAVPLVNRDRGRFEDLKVHFLTDPENEMKEKLLKEYLIVMEIPVQGWDHGTTHLINAAKLDEANLPKEINLVDDYFELVQHEYKKWQENSDQARRAAHAQNPLEPSTPQLSLMDIKCETPNCPFFMSVNTQPLCHECSERRQKNQSKLPKLNSKLGPEGLPGVGLGSSNWSPEETAGGPHSAPPTAPSLFLFSETTAMKCRSPGCPFTLNVQHNGFCERCHARQINASHTADPGKCQACLQDVTRTFNGICSTCFKRTTAEPSSSLTSSIPASCHQRSKSDPSQLIQSLTPHSCHRTGNVSPSGCLSQAARTPGDRAGTSKCRKAGCMYFGTPENKGFCTLCFIEYRENKQSVTASEKAGSPAPRFQNNVPCLGRECGTLGSTMFEGYCQKCFIEAQNQRFHEARRTEEQLRSSQHRDMPRTTQVASRLKCARASCKNILACRSEELCMECQHLSQRVGSVAHRGEPTPEEPPKQRCRAPACDHFGNAKCNGYCNECYQFKQMYG
As to B1, the binding result is “binds”.
